From publication PMC9677231 (ACS infectious diseases, 2021)

Tested on: E. coli expressing OXA-48 (E. coliOXA-48)
Test: Ampicillin MIC synergy assay
Assay type: cell-based
Settings: Cmpd 0 μg/ml (inhibitor-less control of the respective column)

CC1(C)S[C@@H]2[C@H](NC(=O)[C@H](N)c3ccccc3)C(=O)N2[C@H]1C(=O)O [Ampicillin, ampicillin]
Ampicillin MIC for E. coliOXA-48: 1024 µg/mL
